Test results from PubChem BioAssay AID1794844 (National Center for Advancing Translational Sciences (NCATS), 2023).
The whole screen tested about 2,800 compounds, of which fewer than 10 were called active. Not shown: some 7% with an inconclusive outcome. The call rests on the fitted dose curve; in most records, active means well fitted inhibition curve with a large enough effect; inconclusive means small, poorly fitted or top-dose-only effect; inactive means no such curve, though single readings can be large or run the other way. The list shows a part of the results.

The chains behind the UniProt entries cited, without tags or fusion partners. Where a name states a change or a piece, a line headed by the entry shows the natural chain unless it says otherwise.
UniProt C7C422: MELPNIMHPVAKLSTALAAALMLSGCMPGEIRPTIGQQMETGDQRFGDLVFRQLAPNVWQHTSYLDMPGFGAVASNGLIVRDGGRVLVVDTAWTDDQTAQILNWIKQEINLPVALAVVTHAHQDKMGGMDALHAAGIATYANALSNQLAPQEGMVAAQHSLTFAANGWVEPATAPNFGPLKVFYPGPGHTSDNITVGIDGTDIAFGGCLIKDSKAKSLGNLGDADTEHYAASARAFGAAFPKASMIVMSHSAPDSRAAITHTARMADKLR

Target: Metallo-beta-lactamase type 2 (Klebsiella pneumoniae) (UniProt C7C422)
Experiment: qHTS to identify inhibitors of the New Delhi Metallo-beta-lactamase (NDM): Nitrocefin screen against the machine-based learning selections. Further: % of control where 0% means no effect.
Settings: NDM-1 enzyme, nitrocefin hydrolysis, absorbance 485 nm; activity, negative = inhibition: at the top concentration
Outline: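 NDM-1 (2 nM final) in 50 mM HEPES pH 7.0, 1 uM Zn2SO4, 0.01% Tween20 was preincubated with compounds for >30 min. Nitrocefin (16.7 uM final) was read at 485 nm after 15 min, and meropenem (50 uM final) at 300 nm after 30 min.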

activity, negative = inhibition, inactive:
COc1ccc(CN2CCCC(CO)(CC3CC3)C2)c(F)c1 (stereo unspecified) 81.8%
CC(C)CN1C(=O)COC[C@@H]1[C@H](O)c1ccc(NC(=O)C2CCCC2)cc1 1.07% [at 57.5 µM]
Cc1ncsc1CCC(=O)N[C@@H]1CCOC[C@H]1OCC(=O)O -7.97%
CCn1cc(-c2ccc(OC)cc2)cc1C(=O)N1CCCCCC1 -1.02%
C=CCC1(C(=O)O)CCCN(Cc2cnc(NCc3ccccc3)nc2)C1 (stereo unspecified) -4.29%
CC1=C[C@@H](CNc2ccccn2)[C@H](C(C)C)C[C@H]1Cc1nnc(-c2ccc(C)cc2)o1 0.458% [at 57.5 µM]
CCn1nccc1C(=O)NCc1cc(C)cc2c(C)c(-c3ccccc3)[nH]c12 -15.5%
Cn1ccnc1C(=O)N1CC(c2noc(C3CCCN3CC3CC3)n2)C1 (stereo unspecified) 1.03%
Cc1cccc(Nc2nc(N)nc(CN3CCOCC(O)C3)n2)c1 (stereo unspecified) -15.9%
C[C@@H](c1ccccc1)N1C(=O)[C@@H]2CN(C(=O)c3ccc(N(C)C)cc3)CCN2C1=O 2.81% [at 57.5 µM]
CC(=O)N1CCN([C@H]2[C@@H]3OC[C@@H](O3)[C@@H](NCc3ccco3)[C@@H]2O)CC1 -1.7% [at 57.5 µM]
O=C(NCc1cccc(F)c1)c1cnc2c(c1)N(C(=O)Cc1ccc(O)cc1)CCC2 -5.72% [at 57.5 µM]
Cc1ccnc(N2CCC(c3nnc(-c4ccc(F)cc4)o3)CC2)n1 -0.0308%
O=c1cc(-c2ccccn2)oc2c(NCc3ccc(F)cc3)nccc12 -5.96% [at 57.5 µM]
O=C(c1ccccc1F)N1CCCC(c2nn[nH]n2)C1 (stereo unspecified) -3.56%
Cc1nc([C@@H]2CN(S(=O)(=O)c3ccc4c(c3)CCC4)C[C@H]2C(N)=O)n[nH]1 1.21%
CN(C)C[C@@H]1CN(Cc2ccccn2)C[C@H]1NS(=O)(=O)c1cccc(C#N)c1 -3.85%
CC1=C[C@@H](CNCCN(C)C)[C@H](C(C)C)C[C@H]1Cc1nnc(-c2ccc(C)cc2)o1 -1.67% [at 57.5 µM]
O=c1cc(-c2ccccn2)oc2c(-c3cccc(CO)c3)nccc12 -1.46% [at 57.5 µM]
Cn1ccc2c(C(=O)NCc3cccnc3)nc(-c3cccc(O)c3)cc21 -1.31% [at 57.5 µM]
C[C@@H]1CN(c2cc(C3CC3)ncn2)C[C@@]1(O)C1CCC1 4.23%
O=C(Nc1ccc(F)cc1)Nc1cccc(-c2ccc(N3CCOCC3)nn2)c1 -0.193%
Cc1ccc(-c2noc([C@@H]3Cc4nc[nH]c4CN3C(=O)CCC(=O)O)n2)cc1 6.38% [at 57.5 µM]
COc1ccc(Nc2cc3c(cn2)CN(CCc2ccccc2)CCN3)cc1 5.26% [at 57.5 µM]
Cc1cc(C)c(CNC(=O)c2nc(-c3cccc(O)c3)cc3[nH]ccc23)c(=O)[nH]1 1.32% [at 57.5 µM]
O=C(NC1CCCc2nc(N3CCC(CO)CC3)ncc21)c1ccccn1 (stereo unspecified) -6.76%
COc1ccccc1-c1cc(C(=O)NC(C)C)c2cnn(C)c2n1 1.61% [at 57.5 µM]
CCN(CC)C(=O)[C@@H]1CCC[C@@H](NC(=O)Nc2c(C)noc2C)CN(C)C(=O)C1 0.167% [at 57.5 µM]
CC1=C[C@@H](CN(C)CCN(C)C)[C@H](C(C)C)C[C@H]1Cc1nnc(-c2ccccc2)o1 0.36% [at 57.5 µM]
Cc1nn2cc(CCNCC3(O)CNCCOC3)nc2s1 (stereo unspecified) 2.59%
Cc1ccccc1-c1[nH]nc2ncc(-c3cccc(O)c3)nc12 3.39% [at 57.5 µM]
Cc1cccc(C)c1-c1nc(C(=O)NCCc2ccc(Cl)cc2)n2ccccc12 2.12%
Cc1cnc(C)c(N2CCN(C(=O)CCCc3c[nH]c4ccccc34)CC2)n1 3.51%
COc1ccc(NC(=O)N2CC[C@@H](CC(=O)O)[C@@H](CC3=NCCc4cc(OC)c(OC)cc43)C2)cc1 -1.53%
NC1(Cc2cc(C(=O)N3CCCCC3)on2)COC1 0.216% [at 76.7 µM]
COc1ccc2c(c1)CCN=C2C[C@H]1CN(C(=O)c2ccc(F)cc2)CC[C@H]1CC(=O)O -0.339% [at 57.5 µM]
CC(C)NC(=O)NC[C@H]1OC[C@@H](NCc2cccc(C#N)c2)[C@@H]1O -0.0432% [at 57.5 µM]
C[C@@H]1CN(C(=O)c2cccc(C#N)c2)C[C@]1(C)O -0.759%
C[C@H]1[C@@H]2[C@@H](O)C([C@H](C)C(=O)NCc3cccs3)CC[C@@]2(C)CC[C@@H]1NC(=O)COc1ccccc1 (stereo partly specified) 0.373%
COCCN1C[C@H]2CN(Cc3ccc(C(F)(F)F)cc3)CCN2C1=O -6.33% [at 57.5 µM]
CCc1nncn1C1CCN(S(=O)(=O)c2ccc(C)cc2C)CC1 0.956%
CCOCC(=O)N1CCC(N2CC3CC(C2)[C@H]2CCCC(=O)N2C3)CC1 (stereo partly specified) -4.41%
CNC(=O)C(C)(C)N1CCC[C@H]1C(=O)NCc1ccc(OC)cc1 -2.5% [at 57.5 µM]
COc1ccc2c(c1)C(NC(=O)c1cn(CCN)nn1)CC(C)(C)O2 (stereo unspecified) 1.86%
CC(=O)NC1(C)CCN(Cc2cccc(-c3cccc4ncccc34)c2)C1 (stereo unspecified) -5.86% [at 57.5 µM]
CC(C)c1nc2c(c(-c3ccc(O)cc3)n1)CN(C(=O)C1CC1)CC2 2.73% [at 57.5 µM]
CC(C)Cc1cn(CC2CCCN(C(=O)c3ccc4c(c3)CCO4)C2)nn1 (stereo unspecified) -2.73%
CCCNC(=O)N(C1CCOCC1)C1CCN(C(=O)c2cccc(C(F)(F)F)c2)CC1 -5.81%
CN1C[C@H](NCc2cccc(Cl)c2)CCC[C@@H](C(=O)NC2CC2)CC1=O 1.24% [at 57.5 µM]
CC(=O)c1ccc(NC(=O)N2C[C@@H]3C[C@H](C2)c2ccc(NC(=O)CN(C)C)c(=O)n2C3)cc1 -4.12%
O=C1NC(=NC2CCCC2)C2(CCN([S+](=O)([O-])c3cccc(C(F)(F)F)c3)C2)N1c1cccnc1 (stereo unspecified) 1.35%
O=C(NCC1CC1)c1ccnc(-c2nnc3ccc(Nc4ccccc4)nn23)c1 -4.55% [at 57.5 µM]
Cc1ccccc1-c1cccc(CCOc2cnc3c(ccn3CC(=O)O)c2)c1 -16.4% [at 57.5 µM]
Cn1cc(CN(Cc2c(C(=O)N3CCCC3)nc3sccn23)C2CC2)cn1 10.2%
O=C1CCN(Cc2ccccc2OCC(O)CN2CCCCC2)CCN1 (stereo unspecified) 1.94%
COCc1noc([C@@H]2CN(C(=O)c3cccc(Cl)c3)C[C@H]2CO)n1 -2.5%
Cc1ccsc1-c1[nH]nc2ncc(-c3cccc(CO)c3)nc12 13.3% [at 57.5 µM]
COc1ccc(-n2nc(C)c([C@H]3C=C[C@@H](OC(=O)Nc4cccc(F)c4)C3)c2C)cc1 -0.333% [at 57.5 µM]
Cc1ncc2c(c1CNC(=O)c1ccc3cccnc3c1O)CCNC2 1.05%
Cc1ccccc1Nc1n[nH]c(C(O)c2cccc(C(F)(F)F)c2)n1 (stereo unspecified) 3.43% [at 57.5 µM]
CN(C)c1ccc(C(=O)N2CCN3C(=O)c4cc(-c5ccc6c(c5)OCO6)ccc4NC(=O)[C@H]3C2)cc1 -10.3%

Quoted from the entries so far for reference:
activity, negative = inhibition, inactive:
Cc1nc([C@@H]2CN(S(=O)(=O)c3ccc4c(c3)CCC4)C[C@H]2C(N)=O)n[nH]1 1.21%
CN(C)C[C@@H]1CN(Cc2ccccn2)C[C@H]1NS(=O)(=O)c1cccc(C#N)c1 -3.85%
CC1=C[C@@H](CNCCN(C)C)[C@H](C(C)C)C[C@H]1Cc1nnc(-c2ccc(C)cc2)o1 -1.67% [at 57.5 µM]
O=c1cc(-c2ccccn2)oc2c(-c3cccc(CO)c3)nccc12 -1.46% [at 57.5 µM]
Cn1ccc2c(C(=O)NCc3cccnc3)nc(-c3cccc(O)c3)cc21 -1.31% [at 57.5 µM]
